According to paper PMC12864879:
No constants are given. Whether binding was seen depends on the method and setting.

Amino acid sequences for entries named in this document (tags omitted). A change or cut given only in a name is not applied to a line headed by its entry.
UniProt P60953: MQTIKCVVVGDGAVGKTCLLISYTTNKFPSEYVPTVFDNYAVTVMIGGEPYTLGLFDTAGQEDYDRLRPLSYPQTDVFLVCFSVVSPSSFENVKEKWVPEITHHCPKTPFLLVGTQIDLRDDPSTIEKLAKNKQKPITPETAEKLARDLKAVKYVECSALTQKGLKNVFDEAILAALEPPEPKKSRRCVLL

Biological target: GTP-loaded Cdc42 G12V (UniProt P60953)
Experiment: recruitment to supported lipid bilayers on nanobar arrays (spinning-disc confocal fluorescence microscopy); fluorescently labelled purified proteins premixed in PBS for 2 min, added to SLB (POPC, 10% POPS, 1% PI(4,5)P2, 0.5% Rhodamine-PE) on quartz nanobars of 200-1000 nm width; imaged after 30 min at room temperature; signal at nanobar ends normalised to the lipid signal; e.g. 200 nM AF647-FBP17 with 50 nM AF488-N-WASP, titrations at F:N = 4:1, FBP17 or FdHR1 with or without GTP-loaded Cdc42 G12V; both purified

binding: no binding
B1: FBP17 ΔHR1 (deleted aa 401–485) (protein, UniProt Q96RU3)
chain: MSWGTELWDQFDNLEKHTQWGIDILEKYIKFVKERTEIELSYAKQLRNLSKKYQPKKNSKEEEEYKYTSCKAFISNLNEMNDYAGQHEVISENMASQIIVDLARYVQELKQERKSNFHDGRKAQQHIETCWKQLESSKRRFERDCKEADRAQQYFEKMDADINVTKADVEKARQQAQIRHQMAEDSKADYSSILQKFNHEQHEYYHTHIPNIFQKIQEMEERRIVRMGESMKTYAEVDRQVIPIIGKCLDGIVKAAESIDQKNDSQLVIEAYKSGFEPPGDIEFEDYTQPMKRTVSDNSLSNSRGEGKPDLKFGGKSKGKLWPFIKKNKLMSLLTSPHQPPPPPPASASPSAVPNGPQSPKQQKEPLSHRFNEFMTSKPKIHCFRSLKRGLSLKLGATPELPARSEQARRQSGLYDSQNPPTVNNCAQDRESPDGSYTEEQSQESEMKVLATDFDDEFDDEEPLPAIGTCKALYTFEGQNEGTISVVEGETLYVIEEDKGDGWTRIRRNEDEEGYVPTSYVEVCLDKNAKDS
modifications: Alexa Fluor dye on primary amines
